Experimental data: publication PMC7378079 (Scientific Reports, 2020)
Results are given in words; binding and its absence hold for the method and conditions named. Some entries that bind do so weakly or less than the wild type.

Molecular target: T1, TNKS1 SAM(E1050K)-CFP (human, UniProt O95271 1030-1089, E1050K)
T1 construct: human tankyrase 1 (TNKS1), sterile alpha-motif (SAM) domain; also called ML surface mutant of the TNKS1 SAM domain; source: E. coli BL21(DE3), purified (IMAC); not shown: mCerulean (CFP), C-terminal, kept
T1 sequence (looked up): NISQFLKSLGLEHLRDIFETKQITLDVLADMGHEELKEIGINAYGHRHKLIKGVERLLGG
Assay: FRET or BRET; ratiometric FRET (527 nm/477 nm on excitation at 410 nm): 250 nM CFP-fusion mixed with 500 nM YFP-fusion or YFP; assay buffer pH 7.0; 384-well plates, 4 replicates; both purified

binding: binds
B1: TNKS1 SAM(Y1073A)-YFP (domain or fragment, human, UniProt O95271 1030-1089, looked up)
chain: NISQFLKSLGLEHLRDIFETEQITLDVLADMGHEELKEIGINAAGHRHKLIKGVERLLGG
notes: human tankyrase 1 (TNKS1), sterile alpha-motif (SAM) domain; also called EH surface mutant of the TNKS1 SAM domain; source: E. coli BL21(DE3), purified (IMAC); not shown: mCitrine (YFP), C-terminal, kept
